# Test results published in publication PMC12548414.
# Screen size: about 1,600 compounds; about 20 (1%) showed an effect of 50% or more. This is one part of the list.
# System: T1, E. coli pLC1021 (luc-trpAt trans-translation reporter)
# T1 construct: pLC1021 luc-trpAt reporter strain
# Set-up: species or system Escherichia coli pLC1021; luc-trpAt non-stop luciferase reporter; luminescence rises when trans-translation is inhibited; normalized to KKL-35 and DMSO
# Conditions: reporter signal, KKL-35 = 100%; rise means trans-translation inhibition; 2 h, 20 µM
# How it was run: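 Luminescence (560 nm, 10 min after Bright-Glo) reports luciferase that escapes trans-translation tagging, measured after 2 h room-temperature treatment with 20 µM compound. Each plate was scaled between DMSO (negative) and 20 µM KKL-35 (positive) controls. Compounds scoring one standard deviation above the median counted as positive; at least two biological repeats.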
row,Compound,% activation
1,Cc1cc(NCCCn2ccnc2)n2nc(C)c(-c3ccc(Cl)cc3)c2n1 [KKL-0992],4%
2,COc1ccc(N2CCN(c3nc(NC(C)(C)C)nc(N4CCCCC4)n3)CC2)cc1 [KKL-1088],1%
3,CC1CCc2c(sc3ncn(C(C)C(=O)OCc4ccccc4)c(=O)c23)C1 (stereo not drawn) [KKL-0740],7%
4,Cc1ccc(C(=O)Oc2ccc(Cl)c3cccnc23)cc1[N+](=O)[O-] [KKL-1383],0%
5,CCCCCn1c(NCc2ccc(N(C)C)cc2)nc2ccccc21 [KKL-0911],0%
6,C=CCOC(=O)C(C#N)c1nc2ccccc2nc1N1CCN(Cc2ccc3c(c2)OCO3)CC1 (stereo not drawn) [KKL-0877],0%
7,COc1ccc(-c2nnc(SCC(=O)OC3CCCCC3)o2)cc1OC [KKL-1653],0%
8,O=C(CN1C(=O)N2CCN=C2c2cnn(-c3ccccc3)c21)N1CCc2ccccc21 [KKL-0709],0%
9,CSc1nc2nc3c(c(O)n2n1)CCCC3 [KKL-1033],0%
10,CCOC(=O)CSc1nnc(-c2ccc(OC)cc2OC)o1 [KKL-1666],0%
11,Cc1nn(Cc2ccccc2Cl)c2sc(C(=O)NCc3ccc4c(c3)OCO4)cc12 [KKL-0805],0%
12,O=c1oc2ccc3ccccc3c2cc1-c1nc2ccccc2o1 [KKL-1047],2%
13,COc1ccc(C(C)NC(=O)c2cc(-c3ccccc3OC)[nH]n2)cc1F (stereo not drawn) [KKL-0512],0%
14,CSc1ccc(C(=O)C2CCCN(Cc3cc4ccccc4[nH]3)C2)cc1 (stereo not drawn) [KKL-0664],0%
15,O=C(Nc1ccc(N2CCN(C(=O)c3ccc(Cl)cc3)CC2)cc1)c1ccc([N+](=O)[O-])o1 [KKL-0356],0%
16,Cc1ccc2nsnc2c1S(=O)(=O)Nc1cccc2cccnc12 [KKL-1328],3%
17,CCCc1cc(NCc2ccccn2)n2nc(C)c(-c3ccccc3)c2n1 [KKL-0892],0%
18,CC(=O)Oc1cccc2ccc(/C=C/c3cccc(Br)c3)nc12 [KKL-0430],14%
19,COCc1nnc(NC(=O)c2nnn(-c3ccccc3F)c2C)s1 [KKL-0547],0%
20,CCOC(=O)CSC1=C(C#N)C(c2ccccc2[N+](=O)[O-])C(C(C)=O)=C(C)N1 (stereo not drawn) [KKL-0587],0%
21,COc1ccc(-c2cc(=O)c3cc(OCC(=O)OC(C)C)ccc3o2)cc1 [KKL-1864],2%
22,CSCCC(=O)N1CCC(Oc2ccc(C(=O)NCCc3ccccc3)cc2)CC1 [KKL-0622],4%

row,Compound,% activation
1,O=c1oc(-c2ccccc2Br)nc2sc3c(c12)CCCC3 [KKL-0570],0%
2,CN(Cc1ccccc1)CC(O)COc1ccc(CNCc2cc3ccccc3s2)cc1 (stereo not drawn) [KKL-0618],0%
3,CCOC(=O)COc1ccc(OCc2ccccc2)cc1 [KKL-0404],1%
4,NC(=O)c1cc(-c2ccsc2)ccc1OCCOc1ccccc1 [KKL-1826],0%
5,Cc1ccc([N+](=O)[O-])cc1NC(=O)Nc1cccc(Cl)c1 [KKL-1362],4%
6,CCOc1ccc(NC(=O)c2c(NC(=O)CNCCN3CCOCC3)sc3c2CCC3)cc1 [KKL-1306],1%
7,O=C(/C=C/c1cccc(C(F)(F)F)c1)Nc1cccc(C(F)(F)F)c1 [KKL-1369],0%
8,O=C(CC(c1ccccc1)c1ccccc1)N1CCN(Cc2ccc3c(c2)OCO3)CC1 [KKL-0442],7%
9,CCOC(=O)COc1ccc2c(=O)c(-c3ccc(OC)cc3)c(C)oc2c1 [KKL-0434],0%
10,Cc1nn(C)c(C)c1-c1cc(C(=O)NCc2cc(CC(C)C)no2)n[nH]1 [KKL-0507],0%
11,Cc1ccc(-c2nnc(SCC#CCOC(=O)c3ccco3)o2)cc1 [KKL-1392],0%
12,CCOC(=O)COc1c(Cl)cc(/C=C(/C#N)c2nc3cc(OC)ccc3[nH]2)cc1Cl [KKL-0592],0%
13,COC(=O)COc1ccc2c(=O)c(-c3ccccc3Cl)c(C)oc2c1 [KKL-0748],0%
14,Oc1ccc(Br)c2cccnc12 [KKL-0093],371%
15,COc1ccc(Cc2nc3ccc(C(=O)NCCCSC)cc3o2)cc1 [KKL-1182],0%
16,COC(=O)c1ccc(COC(=O)c2ccccc2Cl)cc1 [KKL-1465],0%
17,OC1=C2C(=Nc3ccccc3NC2c2ccc(C(F)(F)F)cc2)CC(c2ccc(Cl)cc2)C1 (stereo not drawn) [KKL-1366],0%
18,O=C(CN(c1ccc(Cl)c(Cl)c1)S(=O)(=O)c1ccccc1)Nc1cccc([N+](=O)[O-])c1 [KKL-1361],2%
19,Cc1cccc(-c2ccc(NC(=O)C3CCN(Cc4ccc(C#CCO)s4)CC3)cc2)c1 [KKL-1139],8%
20,CCOC(=O)CSc1n[nH]c(-c2ccc(Cl)cc2)n1 [KKL-0589],0%
21,Cc1cc(Sc2ncnc(N)c2[N+](=O)[O-])ncn1 [KKL-0861],0%
22,CCOc1ccc(NC(=O)CSc2nnc(-c3ccccc3Cl)o2)cc1 [KKL-1498],2%

row,Compound,% activation
1,Cc1ccc(Cc2cnc(NC(=O)c3cccs3)s2)cc1 [KKL-1628],0%
2,c1ccc(CC2CCN(c3nc4ccccc4n4cnnc34)CC2)cc1 [KKL-1607],0%
3,CCCOc1ccccc1-c1n[nH]c(SCC(=O)OCC)n1 [KKL-1289],5%
4,COc1ccc(CN2CCC(O)(c3cccnc3)CC2)cc1COc1ccccc1F [KKL-0345],3%
5,CSc1ncc(C(=O)NC2(c3ccccc3)CCCC2)cn1 [KKL-0465],0%
6,CCOC(=O)c1c(NC(=O)c2c(F)c(F)c(F)c(F)c2F)sc(C(N)=O)c1C [KKL-0976],5%
7,N#Cc1ccc(-c2ccc(OCC(N)=O)cc2)cc1 [KKL-1337],0%
8,CCC(C)Oc1ccc(C(=O)NC(=S)Nc2ccc(N3CCOCC3)cc2)cc1 (stereo not drawn) [KKL-0419],0%
9,COC(=O)[C@@H](NC(=O)c1cc(COc2ccccc2)on1)c1ccccc1 [KKL-0677],2%
10,COC(=O)COc1ccc2c(=O)c(-c3ccc(Cl)cc3)coc2c1 [KKL-0789],0%
11,O=C(Oc1ccc(Cl)c2cccnc12)c1cccs1 [KKL-0415],4%
12,COC(=O)COc1ccc(CSCC(=O)Nc2ccc3ccccc3c2)cc1 [KKL-1064],6%
13,NC1CCc2nc(-c3cccnc3)nc(Nc3ccc(Cl)cc3)c2C1 (stereo not drawn) [KKL-0540],119%
14,CC(NC(=O)Nc1nnc(C(F)(F)F)s1)(C(F)(F)F)C(F)(F)F [KKL-1003],0%
15,O=C(NC(=S)N1CCc2ccccc21)c1ccccc1 [KKL-1445],17%
16,Cc1ccc(NC(=S)NC[C@H]2C[C@@H]3CCN2C[C@@H]3c2cc(-c3ccc(N(C)C)cc3)nc(C)n2)c(Br)c1 [KKL-0303],0%
17,CCOC(=O)c1ccc(COC(=O)c2cccc([N+](=O)[O-])c2)cc1 [KKL-1497],3%
18,c1ccc(-c2nc(N3CCCCCC3)c3ccccc3n2)nc1 [KKL-1000],1%
19,Cc1ccc2nc(C(F)(F)F)c(C(=O)NCc3ccc(C)o3)n2c1 [KKL-1878],2%
20,CCC(C)(C)c1ccc(OCCCn2ccnc2)cc1 [KKL-1315],9%
21,CC(C)CC(=O)NC(c1ccc(Cl)cc1Cl)c1c(O)ccc2ccccc12 (stereo not drawn) [KKL-1379],13%
22,Cc1cc(O)nc(-n2nc(C)cc2C)n1 [KKL-1071],6%

# Taken from above:
# For % activation, `Cc1ccc(Cc2cnc(NC(=O)c3cccs3)s2)cc1` [KKL-1628] has the entry 0%
# For % activation, `c1ccc(CC2CCN(c3nc4ccccc4n4cnnc34)CC2)cc1` [KKL-1607] has the entry 0%

# (further entries)

row,Compound,% activation
1,Nc1cccnc1Nc1ccc(C(F)(F)F)cc1 [KKL-1711],4%
2,Cc1ccc(-n2cnc3cc(NCc4cccs4)ccc32)cc1 [KKL-1433],3%
3,CCc1cc(C(=O)OC)c(N=C(S)NCc2ccc(Cl)c(Cl)c2)s1 [KKL-1547],0%
4,O=C(C=Cc1ccccc1)N1CCN(Cc2ccc3c(c2)OCO3)CC1 [KKL-1699],1%
5,S=C(NCCc1c[nH]c2ccccc12)Nc1ccc(Nc2ccccc2)cc1 [KKL-1443],6%
6,Cc1ccc(-c2csc(-c3ccncc3)n2)cc1C [KKL-0956],0%
7,Cc1ccc(Nc2cc(C)nc(NCc3ccccc3)n2)cc1 [KKL-0951],4%
8,Cc1ccc(NCCC(=O)c2ccc([N+](=O)[O-])cc2)cc1C [KKL-0401],14%
9,COc1ccc(-c2csc(NC(=O)C3CC4C=CC3C43CC3)n2)cc1OC (stereo not drawn) [KKL-0928],0%
10,CC(C)(C)c1ccc(C(=O)Nc2ccc(NC(=S)NC(=O)c3cccs3)cc2)cc1 [KKL-0310],0%
11,CC1CCCCN1C(=O)COC(=O)/C=C/c1ccc2ccccc2n1 (stereo not drawn) [KKL-0816],0%
12,Cc1ccc2nc(C(F)(F)F)c(C(=O)NCc3cccc(OC(C)C)c3)n2c1 [KKL-1772],2%
13,CCC(C)c1ccc(O)c(NC(=S)NC(=O)c2cncc(Br)c2)c1 (stereo not drawn) [KKL-0711],3%
14,Cc1ccc(-n2cc(CN(C)Cc3nccs3)c(-c3ccc(F)cc3)n2)cc1 [KKL-0475],2%
15,CCOC(=O)CSc1nnc(-c2ccc(Cl)cc2Cl)o1 [KKL-1192],0%
16,Cc1ccc(C)c(OCC(=O)Nc2ccc(C(=O)OC(C)C)cc2)c1C [KKL-0918],0%
17,O=C(CSc1nc2cc(Cl)ccc2o1)NCCc1ccccc1 [KKL-0837],0%
18,COc1ccc(Cc2nnc(SCC(=O)NCCc3ccccc3)o2)cc1 [KKL-1092],6%
19,CCCCCn1c(=O)c(C(=O)Nc2nc3ccccc3[nH]2)c(O)c2ccccc21 [KKL-1004],7%
20,Cn1c(-c2ccccc2)cc2c3no[n+]([O-])c3ccc21 [KKL-0374],0%
21,COc1ccc(C2(C)NN=C3Sc4ccccc4N32)cc1 (stereo not drawn) [KKL-0527],5%
